Reference: paper PMC11655885, “Structural mechanism of CB1R binding to peripheral and biased inverse agonists” (Nature Communications, 2024)
Results are given in words; binding and its absence hold for the method and conditions named. Binding seen in cells or lysates may run through a third protein. Some entries that bind do so weakly or less than the wild type.

Sequences of proteins named here, by UniProt entry; tags and fusion partners are left off.
UniProt P21554: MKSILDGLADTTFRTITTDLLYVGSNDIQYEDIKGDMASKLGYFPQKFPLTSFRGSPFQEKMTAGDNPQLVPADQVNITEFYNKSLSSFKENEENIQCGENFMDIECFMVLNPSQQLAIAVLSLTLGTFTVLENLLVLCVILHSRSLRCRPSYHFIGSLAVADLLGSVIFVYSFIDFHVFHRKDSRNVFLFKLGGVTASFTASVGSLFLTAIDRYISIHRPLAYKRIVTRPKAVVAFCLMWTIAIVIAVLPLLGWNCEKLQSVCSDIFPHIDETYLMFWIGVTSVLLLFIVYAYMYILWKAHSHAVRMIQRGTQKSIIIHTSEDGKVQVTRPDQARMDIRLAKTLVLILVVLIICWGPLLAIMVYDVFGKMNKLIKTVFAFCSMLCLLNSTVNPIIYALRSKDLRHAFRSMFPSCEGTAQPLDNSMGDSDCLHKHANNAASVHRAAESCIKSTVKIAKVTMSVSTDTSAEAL
UniProt P32121: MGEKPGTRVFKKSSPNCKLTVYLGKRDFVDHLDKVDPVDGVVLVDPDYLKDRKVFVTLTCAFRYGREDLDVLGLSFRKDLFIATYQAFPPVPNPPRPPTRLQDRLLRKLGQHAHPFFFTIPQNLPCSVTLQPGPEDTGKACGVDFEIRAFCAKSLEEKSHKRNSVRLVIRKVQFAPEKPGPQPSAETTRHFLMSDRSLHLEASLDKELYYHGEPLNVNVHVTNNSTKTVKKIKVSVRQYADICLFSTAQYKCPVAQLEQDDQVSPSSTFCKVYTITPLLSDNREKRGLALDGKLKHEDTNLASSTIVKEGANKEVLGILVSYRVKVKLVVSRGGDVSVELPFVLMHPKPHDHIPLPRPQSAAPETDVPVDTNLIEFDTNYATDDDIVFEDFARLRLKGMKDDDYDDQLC

Target: human CB1R in PathHunter eXpress CNR1 CHO-K1 β-arrestin-2 cells (human) (UniProt P21554)
Assay: split reporter; DiscoverX PathHunter β-arrestin-2 recruitment assay for hCNR1 in CHO-K1 cells, with the agonist CP55,940 (30 nM); inverse agonists taranabant, MRI-1867, MRI-1891 titrated

For “β-arrestin-2 in PathHunter eXpress CNR1 CHO-K1 β-arrestin-2 cells (from UniProt P32121 1-409)”, the binding was “binds”.
